Data as given in PMC7187754 (Frontiers in Microbiology, 2020).

Legend:
[1] = general procedure: Fmoc solid-phase peptide synthesis; 2-chlorotrityl chloride polystyrene resin (2-CTC, 1.60 mmol/g), preloaded via D-Ser side chain; HBTU/DIPEA; DIC/DMAP/pyridine for esterification; HATU/HOAt/DIPEA for on-resin c; settings: whole synthesis
[2] = system: test panel of six Gram-positive bacterial strains; test: Relative activity factor distribution count over the test panel; type: cell-based
[3] = general procedure: Fmoc solid-phase peptide synthesis; preloaded 2-CTC resin (0.46 mmol/g); HBTU/DIPEA; DIC/DMAP/pyridine for esterification; HATU/HOAt/DIPEA for on-resin c; settings: whole synthesis, scale 0.069 mmol
[4] = 214 nm, scale of the general procedure 0.0555 mmol
[5] = based on initial resin loading, scale 0.0615 mmol
[6] = scale of the general procedure 0.0555 mmol
[7] = based on initial resin loading, scale 0.069 mmol

| Substance | final HPLC purity [1, 4] | isolated yield [1, 5] | isolated mass ([1]; scale 0.0615 mmol) | difficulty met [1, 6] | further results |
| --- | --- | --- | --- | --- | --- |
| pseudodesmin C4 | 90.99% | 8% | 5.2 mg | [M+H]+, epimerization product |  |
| pseudodesmin C6 | 91.31% | 13% | 8.8 mg | [M+H]+, epimerization product |  |
| pseudodesmin C12 | 99.09% | 1 8% | 12.8 mg | [M+H]+, epimerization product |  |
| Pseudodesmin A [compound 1] |  |  |  |  | Relative activity factor distribution count 0.5≤F≤2 [2]: 3; Relative activity factor distribution count ×4 [2]: 1; Relative activity factor distribution count ×8 [2]: 2 |
| pseudodesmin C14 | 99.31% | 1 4% | 10.5 mg | [M+H]+, epimerization product |  |
| Daptomycin |  |  |  |  | Relative activity factor distribution count ×4 [2]: 1; Relative activity factor distribution count ≥16 [2]: 4 |
| pseudodesmin A |  |  |  |  | final LC-MS purity ([1]; LC-MS (Kinetex C18, detection at 214 nm), scale of the general procedure 0.0555 mmol): 99.66%; isolated yield ([1]; overall, on initial resin loading, scale of the general procedure 0.0555 mmol): 27%; isolated mass ([1]; scale 0.0765 mmol): 23.5 mg |
| pseudodesmin C8 | 92.62% | 1 0% | 6.7 mg | [M+H]+, epimerization product |  |
| Viscosinamide | 96.23% |  |  | [M+H]+, epimerization product | isolated yield [1, 7]: 35%; crude mass ([1]; scale 0.069 mmol): 85.6 mg; isolated mass ([1]; scale 0.069 mmol): 27.4 mg |
| viscosinamide L5I |  |  |  | [M+H]+, epimerization product | final purity (method not given) [1, 4]: 75.2%; isolated yield [1, 7]: 12%; isolated mass ([1]; scale 0.069 mmol): 9.0 mg; crude mass [3]: 82.6 mg |
